Laboratory results as given in patent US20260083126A1, “ANTIMICROBIAL COMPOSITIONS” (AHV International B.V., priority 2022, published 2026).
Some results were stated once for a whole list of compounds, not compound by compound.

Test system: Klebsiella pneumoniae ATCC 13883
Test: MIC assay
Assay type: cell-based
Details: Example 2b, FIG. 1; no MIC90 detected in the tested range
Experimental: The exact weighed amount was noted and the volume of solvent to reach a 80 mM dilution calculated. Half of the volume was added first, by adding Tween 80 and let stand for 5 minutes. In a second step, the other half of the volume DMSO was added and resuspended to help the dilution process. The closed tube was inverted 5-10 times and then vortexed very thoroughly for at least 30 seconds. If after this procedure crystals were still visible, the tube was placed in a shaker at 37° C. at 150 rpm for at least 30 minutes (it is indicated if the dissolution period was longer than 2 h). […] In case of Bis(4-Chlorophenyl) thiosulfonate, a lower concentrated stock solution of 2 mM needed to be prepared. For that, the required amount of compound was weighed in and 2% v/v Tween80 and 2% v/v DMSO of the end volume of the stock solution was added to the substance. […]
The microorganisms as indicated in Table 4 were used to inoculate a tryptic soy agar (TSA) plate and incubated overnight at 37° C. […] The optical density at 600 nm (OD600) of the bacterial suspension was measured with a spectrophotometer (Evolution™ 201/220 UV-Visible Spectrophotometer, Thermo Fisher Scientific) and diluted to an OD600 of 0.0008, which resembles 10^6 CFU/mL.
The MIC assay was performed in a flat-bottom 96-microtiter plate. […] After incubation the OD was measured at 600 nm with the Varioskan (Thermo Fisher Scientific). […]

Clc1ccc(SSc2ccc(Cl)cc2)cc1 [Bis (4-chlorophenyl) disulfide, Bis(4-chlorophenyl) disulfide]
Average MIC90 K. pneumoniae (Kp): > 1000 µM
